# The structures given here were assigned with low confidence; some may be wrong.
# Chains of the proteins cited; added tags and fusions are not shown.
# UniProt P11802, whole entry: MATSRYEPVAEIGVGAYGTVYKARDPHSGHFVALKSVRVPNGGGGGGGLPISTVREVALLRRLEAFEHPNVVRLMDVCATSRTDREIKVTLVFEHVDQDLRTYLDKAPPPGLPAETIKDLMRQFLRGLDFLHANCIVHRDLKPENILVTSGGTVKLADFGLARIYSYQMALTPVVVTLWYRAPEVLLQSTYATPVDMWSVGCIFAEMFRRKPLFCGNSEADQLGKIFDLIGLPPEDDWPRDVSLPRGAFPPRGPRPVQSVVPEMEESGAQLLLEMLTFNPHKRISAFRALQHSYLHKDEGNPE
# UniProt P24385, whole entry partner: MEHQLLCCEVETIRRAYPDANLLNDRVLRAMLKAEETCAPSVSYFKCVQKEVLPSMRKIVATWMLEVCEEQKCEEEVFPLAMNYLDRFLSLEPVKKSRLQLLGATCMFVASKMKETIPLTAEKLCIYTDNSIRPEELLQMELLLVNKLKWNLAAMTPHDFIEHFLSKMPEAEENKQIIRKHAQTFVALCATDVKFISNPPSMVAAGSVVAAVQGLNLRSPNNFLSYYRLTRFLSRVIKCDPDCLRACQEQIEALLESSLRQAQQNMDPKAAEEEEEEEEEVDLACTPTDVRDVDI
# How the values were obtained:
# [1] = biological target: CDK2/Cyclin E1 full length (Homo sapiens (Human), UniProt P24941); test: CDK2/Cyclin E1 Full length ADP-Glo Kinase Assay; settings: read-out: CDK2/CyclinE1 IC50 nM
# Procedure: CDK2/Cyclin E1 Full length ADP-Glo Kinase Assay
# The purpose of CDK2/Cyclin El assay is to evaluate the inhibition (% inhibition and IC50 values) of small molecule inhibitors by using a Luminescent based ADP-Glo assay. CDK2/Cyclin El full length catalyzes the production of ADP from ATP. ADP-Glo assay monitors ADP producing biochemical reactions. ADP-Glo is performed in 2 steps upon completion of kinase reaction: a combined termination of kinase reaction and depletion of remaining ATP in the first step, and conversion of generated ADP to ATP and the newly produced ATP to light output using luciferase/luciferin reaction in the second step. The luminescent signal generated is proportional to the ADP concentration produced and is correlated with the kinase activity. CDK2/Cyclin E1 was purchased from Eurofins (Cat 14-475M). Typical reaction solutions (10 uL final reaction volume) contained 2% DMSO (±inhibitor), 10 mM MgCI2, 1 mM EGTA, 0.05% BSA, 2 mM DTT, 20 uM ATP (ATP Km=64.78 uM), 0.01% Brig-35, 0.75 uM substrate, and 0.328 nM wild-type full length CDK2/Cyclin El enzyme complex in 50 mM HEPES buffer at pH 7.5. […] Samples were incubated for 40 minutes, after which plate well luminescence was measured on a Envision microplate reader. […]
# [2] = biological target: CDK4/Cyclin D1 (Homo sapiens (Human), UniProt P11802); test: CDK4/Cyclin D1 CHEF Assay; settings: read-out: CDK4/CyclinD1 AQT IC50 nM
# From the text: CDK4/Cyclin D1 CHEF Assay
# The purpose of CDK4/Cyclin Dl assay is to evaluate the inhibition (% inhibition and IC50 values) of small molecule inhibitors by using a Chelation-Enhance Fluorescence (CHEF) assay. In a CHEF assay, phosphorylation of a peptide substrate results in proportional increase in fluorescence. CHEF kinase assay use peptide substrates containing a synthetic alpha-amino acid with a side chain bearing an 8-hydroxyquinoline derivative (sulfonamido-oxide, Sox). Upon phosphorylation of a nearby serine, threonine or tyrosine and in the presence of Mg(II), the spectral properties of the Sox residue are altered, emitting 485 nm wavelength light when excited with a 360 nm wavelength light source. CDK4/Cyclin D1 catalyzes the phosphoryl transfer to the SOX-labeled substrate peptide AQT0258 from Assayquant Technologies. Typical reaction solutions contained 2% DMSO (+/−inhibitor), 10 mM MgCl2, 1 mM DTT, 200 uM ATP (ATP Km=195.2 uM), 0.012% Brig-35, 10 uM AQT0258 peptide, 0.02% BSA, 1% Glycerol, 0.55 mM EGTA, 2.5 nM CDK4/Cyclin D1 in 54 mM HEPES buffer at pH 7.5. The reaction was initiated with the addition of substrate solution, following a 30-minute pre-incubation of enzyme and inhibitor at 22° C. in the reaction mix. Reactions were allowed to proceed for 3 hrs at 22° C., followed by fluorescence read of the reaction. […]
# [3] = system: MCF-7 cells; test: Cell Growth Inhibition, MCF-7 (CellTiterGlo, 6 days); format: cell-based; settings: read-out: MCF-7 Cell IC50 nM
# From the text: (§1) MCF-7 and OVCAR-3 cells were used to evaluate the anti-proliferation activity of the CDK inhibitors. MCF-7 (ATCC, HTB-22) cells are epithelial cells from a patient with ER+ metastatic adenocarcinoma. OVCAR-3 (ATCC, HTB-161) cells were derived from malignant ascites of a patient with ovarian cancer and are known to have CCNE1 amplification. Both cell lines were maintained in RPMI media supplemented with 10% fetal bovine serum. For cell growth inhibition assay, CDK inhibitors in DMSO solution were dispensed with either Echo 655 (Beckman Coulter) or Tecan D300e (TIP) into 384-well plates (Corning #3765) and the 384-well plates were UV-sterilized prior to the assay. The inhibitors were typically tested in the 10-10,000 nM concentration range with half-log serial dilutions. MCF-7 or OVCAR-3 (500 cells/30 μL/well) were added to each well using Multidrop Combi (ThermoFisher) using standard cassettes. The assay plates with cells were cultured at 37° C., 5% CO2 for 6 days. At the end of the 6-day treatment, 30 μL of CellTiterGlo 2.0 (Promega) was added to each well and the luminescent signal was read using CLARIOstar plus (BMG). The percentage of cell growth inhibition (% CGI) was calculated using the following formula % CGI=100-100×luminescencesample/luminescenecontrol. The half maximal inhibitory concentration (IC50) was determined by nonlinear curve fitting (four parameters, variable slope).
# [4] = system: OVCAR-3 cells; test: Cell Growth Inhibition, OVCAR-3 (CellTiterGlo, 6 days); format: cell-based; settings: read-out: OVCAR-3 Cell IC50 nM
# From the text: as §1
compound,measurement,setting,value
Cc1cc2cnc(NC3CC4CC3CN4C)nc2c(N2CCC3(C2)CC3(F)F)n1 (stereo not shown),IC50,[1],500 to 2000 nM
same,IC50,[2],< 200 nM
same,IC50,[3],500 to 2000 nM
same,IC50,[4],500 to 2000 nM
